Measured values taken from patent US20260234130A1, “EP2 Antagonist Compounds” (Reservoir Neuroscience, Inc., priority 2022, published 2026).

By UniProt entry, the sequences of proteins in these tests, tags left out.
UniProt P43116, whole entry: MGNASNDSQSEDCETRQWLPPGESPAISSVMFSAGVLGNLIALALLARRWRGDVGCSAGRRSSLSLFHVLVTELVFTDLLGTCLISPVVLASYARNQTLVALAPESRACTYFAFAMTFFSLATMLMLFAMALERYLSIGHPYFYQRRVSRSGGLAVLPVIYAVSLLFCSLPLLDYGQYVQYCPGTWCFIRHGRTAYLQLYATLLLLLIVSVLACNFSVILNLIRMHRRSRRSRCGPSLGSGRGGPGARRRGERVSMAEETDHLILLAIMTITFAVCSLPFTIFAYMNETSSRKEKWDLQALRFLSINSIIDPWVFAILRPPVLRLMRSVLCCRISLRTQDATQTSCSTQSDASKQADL

Target: EP2 receptor (Homo sapiens, UniProt P43116)
Experiment: EP2 potency assay (cAMP TR-FRET, LANCE Ultra cAMP kit) in transfected CHO-K1 cells stimulated with PGE2 at EC80
Type: cell-based
Details: Table (V), EP2 antagonism, CHO-K1 cells expressing EP2, PGE2 at EC80
Procedure: Compound potency was measured using a cAMP TR-FRET assay. CHO-K1 cells (ATCC) were seeded at a density of 9.75×105 in 6 cm plates, and then on the following day cell media was changed to Opti-Mem I reduced serum media (Gibco), and transfected with a plasmid for expression of the EP2 receptor (the target receptor of interest), using the FuGENE 6 Transfection reagent (Promega). After 6 hours incubation, the cell media was replaced with F12 medium supplemented with 10% FBS and 100 U/ml Pen-Strep. 24 hours after transfection, cells were harvested and seeded at a density of 3000 cells/well in a 384 well plate to perform the cAMP assay, using the LANCE Ultra cAMP assay kit (PerkinElmer). For each test compound of interest, 10 nl/well of serially diluted test compound was added to each well, resulting in a range of 10 serially diluted compound concentrations from 10000 nM to 0.038 nM, with duplicate wells for each concentration. […] Levels of TR-FRET fluorescence were measured in each well using an EnVision microplate reader (excitation wavelength=337 nm and emission wavelength=615 and 665 nm). A dose-response curve was prepared by plotting percent inhibition for each compound concentration, and then IC50 was calculated by fitting a curve to the plotted values and extrapolating the IC50 concentration. […]

- IC50: < 100 nM
Structure (SMILES): CCOC(=O)c1ncc(CN2CCOc3c(Cl)cc(-n4ccc5cc(F)ccc54)cc3C2)cn1

The match of structure and compound is tentative.
